From PubChem BioAssay AID504444 (National Center for Advancing Translational Sciences (NCATS), 2011)
Hit rate of the full screen: of about 360,000 compounds, about 7,500 (2.1%) were called active. Inconclusive results, whose numbers are uncertain, are shown with a selection of clear calls. Calls come from the whole dose curve; as a rule, active = well fitted inhibition curve with a large enough effect; inconclusive = small, poorly fitted or top-dose-only effect, or effect the other way; inactive = flat fitted curve, though single readings scatter. Where the call is inconclusive, the potency comes from a doubtful curve fit.

Test: Nrf2 qHTS screen for inhibitors; note: nearly all actives have a fitted effect of over 60% in size
Details: A549 ARE-Fluc reporter, luciferase luminescence, 18-24 h; activity change, negative = inhibition: at 46 µM (top of the series)
Method in brief: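 A549 ARE_Fluc cells, 5000/well, 5% FBS OPTI-MEM; compounds in dose-response, 18-24 h at 37 °C/5% CO2; CellTiter-Fluor viability read (Ex 405/Em 525), then BugLite luciferase luminescence = Nrf2 activity.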
% is set by controls: 0 for no effect and ±100 for the full control effect; potency is the fitted concentration of half-maximal effect.

Row | Structure (SMILES) | Potency | activity change, negative = inhibition
1 | O=C(Nc1ccc(N2CCCCC2)cc1)c1ccc(F)cc1 | inconclusive: 0.366 µM [activator, full curve, poor fit] | –
2 | CCCNC(=O)N1[C@H](c2cccs2)[C@@H](C)C(=O)[C@@H](C)[C@@H]1c1cccs1 | inconclusive: 29.1 µM [activator, single point] | –
3 | COc1cc(/C=C/C(=O)OCC(=O)Nc2cc(S(=O)(=O)N3CCCC3)ccc2Cl)cc(OC)c1OC | inconclusive: 7.31 µM [activator, partial curve, poor fit] | –
4 | O=C(CNC(=O)c1cccc(F)c1)N/N=C/c1ccc([N+](=O)[O-])s1 | inconclusive: 23.1 µM [falling, single point] | –
5 | Cc1ccc(C)c(N2CCN(C(=O)c3cc(S(=O)(=O)N4CCOCC4)cn3C)CC2)c1 | inconclusive: 5.8 µM [falling, partial curve, poor fit] | –
6 | CCN(CC)c1ccc(N)cc1 | inconclusive: 29.1 µM [falling, single point] | –
7 | CC1(C)OC2OC(COC(=O)c3ccccc3)C3OC(C)(C)OC3C2O1 (configuration not stated) | inconclusive: 10.3 µM [activator, partial curve, poor fit] | –
8 | O=C(CSc1nnnn1-c1ccc2c(c1)OCCO2)Nc1nc2c(s1)CCCC2 | active: 13 µM | –
9 | C=CCNC(=O)Nc1ccc(Br)cc1Cl | inconclusive: 1.46 µM [falling, full curve] | –
10 | Cc1cc2nc(CCN(C(=S)NCC3CCCO3)C3CCCC3)[nH]c2cc1C (configuration not stated) | inconclusive: 11.6 µM [falling, partial curve, poor fit] | –
11 | C[C@H]1CN([C@@H](C)CO)C(=O)c2cccc(NC(=O)Nc3ccc(C(F)(F)F)cc3)c2O[C@H]1CN(C)C | inconclusive: 29.1 µM [falling, single point] | –
12 | O=c1c2ccccc2oc2cc(C#Cc3ccccn3)ccc12 | inconclusive: 2.06 µM [activator, full curve, poor fit] | –
13 | Cc1ccc(NC(=O)c2ccc3snnc3c2)cc1C | inconclusive: 3.26 µM [activator, partial curve] | –
14 | CCOc1ccc(N(C(=O)/C=C/C(=O)Nc2cc(C)on2)C(C(=O)NC2CCCC2)c2ccccc2C)cc1 (configuration not stated) | inconclusive: 5.8 µM [falling, partial curve, poor fit] | –
15 | CCC(C)NC(=O)c1c(C)oc2nc(C)nc(N3CCOCC3)c12 (configuration not stated) | inconclusive: 29.1 µM [activator, single point] | –
16 | COc1cccc(NC(=O)C2CCN(S(=O)(=O)c3ccc4[nH]c5c(c4c3)CCCCC5)CC2)c1 | inconclusive: 29.1 µM [falling, single point] | –
17 | O=C(Cc1ccc(NC(=O)C2CCCN(C(=O)CCc3ccccc3)C2)cc1)Nc1ccc(C(=O)N2CCOCC2)cc1 (configuration not stated) | – | inactive: 2%
18 | COCCNC(=O)c1ccc2c(Cl)c3c(nc2c1)CCC3 | inconclusive: 2.91 µM [activator, full curve] | –
19 | C#CCOCCOCCOCCNc1nc(N2CCN(C(=O)CCCCCCCCCCNC(=O)[C@H](CCCCN)n3cc(CCO)nn3)CC2)nc(N2CCN(C(=O)CCCCCCCCCCNC(=O)[C@H](CCCN=C(N)N)n3cc(C[C@@H](C)CC)nn3)CC2)n1 | inconclusive: 29.1 µM [falling, single point] | –
20 | CC(C)c1ccc(OC(=O)NCCO)cc1 | inconclusive: 25.9 µM [activator, single point] | –
21 | CC(=O)n1cc([C@@H]2C=C(C(=O)N3CCOCC3)O[C@H](OCc3ccc(CO)cc3)C2)c2ccccc21 | inconclusive: 6.51 µM [activator, single point] | –

Row | Structure (SMILES) | Potency | activity change, negative = inhibition
22 | Cc1nc(N2CCN(c3ccccn3)CC2)c2c(C)c(C(=O)Nc3ccc(F)cc3F)sc2n1 | inconclusive: 20.6 µM [falling, partial curve] | –
23 | COC(=O)CC(=O)CSc1nc2cc(C(=O)NCC(C)C)ccc2c(=O)n1CCc1ccccc1 | inconclusive: 0.651 µM [falling, partial curve, poor fit] | –
24 | CCCCN(C(=O)c1cccc(S(=O)(=O)N2CCN(Cc3ccccc3)CC2)c1)c1ccccc1 | inconclusive: 16.4 µM [falling, single point] | –
25 | COc1ccc(OCC(=O)N/N=C/C=C/c2ccccc2)cc1 | inconclusive: 29.1 µM [activator, single point] | –
26 | Cc1ccsc1CN(C)CC(=O)Nc1ccc([N+](=O)[O-])cc1Cl | inconclusive: 29.1 µM [falling, single point] | –
27 | Cc1c(C=O)c2ccccc2n1CC(=O)NC(C)c1ccccc1 (configuration not stated) | inconclusive: 32.6 µM [falling, partial curve, poor fit] | –
28 | CN(C)S(=O)(=O)c1cc(NC(=O)CN2CCN(c3ccccc3F)CC2)ccc1Cl | inconclusive: 32.6 µM [falling, single point] | –
29 | CCOC(=O)c1cccc(NC(=O)CN(c2ccc(C)cc2)S(=O)(=O)c2c(C)noc2C)c1 | inconclusive: 29.1 µM [falling, single point] | –
30 | O=C(NCc1cccnc1)/C(=C/c1ccc(Cl)cc1)NC(=O)c1ccccc1 | – | inactive: 4.74%
31 | CCn1c(SCc2nc(-c3ccccc3)no2)nnc1-c1cccs1 | inconclusive: 7.31 µM [falling, partial curve, poor fit] | –
32 | CCOc1ccc(N(CC)S(=O)(=O)N2CCCC(C(=O)Nc3ccc(OC)c(Cl)c3)C2)cc1 (configuration not stated) | inconclusive: 29.1 µM [falling, single point] | –
33 | Cc1ccc(S/C=C\C(=O)c2ccccc2)cc1 | – | inactive: 70%
34 | CC(=O)Nc1ccc(-c2csc(Nc3ncccn3)n2)cc1 | inconclusive: 0.411 µM [activator, partial curve, poor fit] | –
35 | CC1CCN(c2ccc(S(=O)(=O)NC3=NCCCCC3)cc2[N+](=O)[O-])CC1 | inconclusive: 18.4 µM [falling, partial curve, poor fit] | –
36 | COc1ccc(NC(=O)c2cc(-c3ccc(C)o3)nc3ccccc23)c(OC)c1 | – | inactive: 8.88%
37 | CSc1cccc(NS(=O)(=O)c2ccc3c(c2)oc(=O)n3C)c1 | active: 25.9 µM | –
38 | Nc1nc(NC(=O)c2cccs2)nn1-c1ccccc1 | inconclusive: 2.91 µM [activator, full curve, poor fit] | –
39 | O=C(O)c1cc(-c2ccc(-c3ccc(F)cc3)o2)nc2ccccc12 | inconclusive: 32.6 µM [falling, single point] | –
40 | CC(=O)Nc1cccc(N/C(N)=N/c2nc(C)cc(C)n2)c1 | inconclusive: 32.6 µM [falling, partial curve, poor fit] | –
41 | Cc1ccc(NC(=O)c2ccc3nsnc3c2)c(Cl)c1 | inconclusive: 0.411 µM [activator, full curve, poor fit] | –
42 | CCOC(=O)c1c(CN2CCOCC2)n(-c2ccccc2)c2cc(Br)c(OC)cc12 | inconclusive: 16.4 µM [falling, partial curve] | –

One compound at a time, from the list above. Order of values: Potency	activity change, negative = inhibition
`CCOC(=O)c1c(CN2CCOCC2)n(-c2ccccc2)c2cc(Br)c(OC)cc12` as listed: inconclusive: 16.4 µM [falling, partial curve]	–
`Cc1ccsc1CN(C)CC(=O)Nc1ccc([N+](=O)[O-])cc1Cl` as listed: inconclusive: 29.1 µM [falling, single point]	–
`CC(=O)Nc1ccc(-c2csc(Nc3ncccn3)n2)cc1` as listed: inconclusive: 0.411 µM [activator, partial curve, poor fit]	–

Going on with the list.

Row | Structure (SMILES) | Potency | activity change, negative = inhibition
43 | COc1ccc(NS(=O)(=O)c2c(C)cc(C)cc2C)cc1 | active: 20.6 µM | –
44 | COc1ccc(OC)c(NC(=O)CC(=O)Nc2ccc3nc4n(c(=O)c3c2)CCCCC4)c1 | inconclusive: 0.13 µM [activator, full curve, poor fit] | –
45 | CCc1ccccc1NC(=O)Cn1nc(N2CCN(c3ccccc3OC)CC2)ccc1=O | inconclusive: 6.51 µM [falling, partial curve, poor fit] | –
46 | CCN1CCN(CCC2Oc3cc([N+](=O)[O-])ccc3NC2=O)CC1 (configuration not stated) | inconclusive: 29.1 µM [falling, single point] | –
47 | COC(=O)c1cn(CC(=O)N2C(C)CCCC2C)c2ccccc12 (configuration not stated) | – | inactive: -7.61%
48 | Cc1cc(C)c(OCCOCCn2c(-c3ccc(Cl)cc3)nc3ccccc3c2=O)c(C)c1 | – | inactive: 8.96%
49 | Cc1[nH]c2ccccc2c1NC(=O)CN1CCN(c2cccc(C(F)(F)F)c2)CC1 | inconclusive: 29.1 µM [falling, single point] | –
50 | CC(=O)c1ccc(N2CCN(c3ccc(C(N)=O)cc3[N+](=O)[O-])CC2)cc1 | – | inactive: -23.5%
51 | CC(C)[C@H](NC(=O)OCc1ccccc1)C(=O)OCC(=O)N1CCCCC1 | inconclusive: 8.2 µM [activator, partial curve] | –
52 | Cc1ccc(NC(=O)c2ccc(S(=O)(=O)NCC3CCCO3)cc2)cc1C (configuration not stated) | – | inactive: 2.39%
53 | CC1CCCc2sc3nc(N4CCN(CCO)CC4)n4ncnc4c3c21 (configuration not stated) | inconclusive: 7.31 µM [falling, partial curve] | –
54 | Cc1ccnc(SCC(=O)Nc2sc3c(c2C#N)CCC(C(C)(C)C)C3)n1 (configuration not stated) | – | inactive: 7.17%
55 | CC(C)(C)NC(=S)NC(=O)C12CCC3CC(CC(C3)C1)C2 | – | inactive: 0.09%
56 | C=CCNC(=O)C1CCC(CNc2nc(=S)[nH]c3ccccc23)CC1 (configuration not stated) | inconclusive: 18.4 µM [falling, partial curve] | –
57 | Cc1cccc(NC(=O)N2CCC(CN3CCCCCC3)CC2)c1C | – | inactive: 8.44%
58 | FC(F)Oc1ccc(-n2cc(-c3ccccc3)[n+]3c2CCCCC3)cc1 | – | inactive: 0.39%
59 | COc1cc(-c2nc(-c3ccc(NC(=O)c4ccc5c(c4)OCO5)cc3)no2)cc(OC)c1OC | inconclusive: 29.1 µM [falling, single point] | –
60 | CCC(=O)Nc1ccc(S(=O)(=O)N2CCN(c3ccc(F)cc3)CC2)cc1 | inconclusive: 20.6 µM [falling, partial curve] | –
61 | COc1cccc(CNC(=O)C2CCCN(S(=O)(=O)c3ccc4c(c3)C(C)(C)C(=O)N4C)C2)c1 (configuration not stated) | inconclusive: 8.2 µM [falling, partial curve, poor fit] | –
62 | O=c1oc(Nc2ccccc2F)nc2ccccc12 | inconclusive: 10.3 µM [activator, partial curve] | –
